This is an account of results in PMC6513901.

Results are given in words; binding and its absence hold for the method and conditions named. In cells and extracts the contact can be indirect. A result given as binding can be weak or reduced; the word gives no strength. Tags and fused reporters may be left off the sequences shown.

The target of this assay is T1, GFP–APUM9 fusion protein (Arabidopsis) (UniProt Q1PFN9).
T1 sequence: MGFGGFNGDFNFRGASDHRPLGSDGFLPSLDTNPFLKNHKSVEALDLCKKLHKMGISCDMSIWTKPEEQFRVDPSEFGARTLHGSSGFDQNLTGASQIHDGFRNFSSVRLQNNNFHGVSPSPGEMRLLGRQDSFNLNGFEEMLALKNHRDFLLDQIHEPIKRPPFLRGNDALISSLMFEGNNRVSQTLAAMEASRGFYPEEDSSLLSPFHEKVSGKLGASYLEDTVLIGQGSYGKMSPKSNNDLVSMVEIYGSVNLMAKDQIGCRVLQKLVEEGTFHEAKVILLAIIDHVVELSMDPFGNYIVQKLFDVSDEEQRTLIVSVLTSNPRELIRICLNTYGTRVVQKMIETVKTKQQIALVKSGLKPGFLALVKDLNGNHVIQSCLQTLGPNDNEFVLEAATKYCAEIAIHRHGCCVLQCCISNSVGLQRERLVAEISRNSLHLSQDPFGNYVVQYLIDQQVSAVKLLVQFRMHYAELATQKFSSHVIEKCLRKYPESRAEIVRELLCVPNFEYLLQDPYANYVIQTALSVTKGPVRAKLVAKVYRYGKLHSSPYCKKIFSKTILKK
As to the kind of experiment: co-IP; GFP co-immunoprecipitation with anti-GFP-Trap_A agarose beads from protein extracts of agroinfiltrated N. benthamiana leaves, 3 d.p.i.; input and eluates analysed by western blot (anti-HA, anti-GFP). On the technique in general: Immunoblotting shows a protein as a band on a membrane.

Regarding “HA-tagged NbDCP2 (N. benthamiana) (enzyme)”, the binding result is given as “binds”.
